PubChem BioAssay AID743454 – Peter MacCallum Cancer Centre | 2014

Assay: 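Search for knock-downs that restore vorinostat killing in resistant colon cancer cells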 (primary screen)
System: human HCT116-VR colon cancer cells, selected for vorinostat resistance
Reagent: siRNA pool against human genes, 40 nM siRNA pool
Duration: vorinostat for 24 h, read-out about 72 h after transfection
Treatment: vorinostat at 2.5 µM final
Measured: 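Cell viability by CellTiter-Fluor and caspase 3/7 activity by luminescence, each scaled to mock wells per plate, duplicates averaged, then robust z-scored over all plates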
Scale: viability robust z-score: higher = more viable cells than screen typical; caspase robust z-score: higher = more caspase 3/7 activity than screen typical
Rule for the call: 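a knock-down is a hit when classed RV1 or RV2 for lowered viability, or CA1 or CA2 for caspase activation; those lethal without drug were dropped; hits were retested singly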
The deposit covers about 18,000 reagents; this is an unselected part. 450 of all reagents (2.5%) were called active. 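Single biological run; no consistent viability z cut-off exists, so the class columns, not z-scores, define the calls.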

target,viability hit class,caspase hit class,viability robust z-score,caspase robust z-score,Call
ATOH7 (atonal bHLH transcription factor 7),no change,no change,-0.46,-0.12,inactive
ZC3HAV1L (ZC3HAV1 like),no change,no change,-0.15,-0.34,inactive
TUBB1 (tubulin beta 1 class VI),no change,no change,-0.25,-0.78,inactive
ILRUN,no change,no change,-0.1,0.43,inactive
PARVB (parvin beta),no change,no change,-0.55,0.12,inactive
ZNF710 (zinc finger protein 710),no change,no change,0.52,0.29,inactive
TKFC (triokinase and FMN cyclase),no change,no change,0.46,2.69,inactive
KPRP (keratinocyte proline rich protein),no change,no change,-3.48,-0.59,inactive
COMMD5 (COMM domain containing 5),no change,no change,0.36,-1.18,inactive
NTRK3 (neurotrophic receptor tyrosine kinase 3),no change,no change,1.64,-0.09,inactive
CASP5 (caspase 5),no change,no change,-0.24,0.39,inactive
"CDC34 (cell division cycle 34, ubiquitin conjugating enzyme)",no change,no change,-1.22,3.32,inactive
MMP7 (matrix metallopeptidase 7),no change,no change,-0.44,1.83,inactive
PTBP1 (polypyrimidine tract binding protein 1),no change,no change,-0.26,-0.62,inactive
POP1 (POP1 ribonuclease P/MRP subunit),RV2 (reduced viability),no change,-3.19,2.04,active
ZNF76 (zinc finger protein 76),no change,no change,-0.22,3.17,inactive
TMEM116 (transmembrane protein 116),no change,no change,-0.16,0.77,inactive
GNAQ (G protein subunit alpha q),no change,no change,0.18,3.18,inactive
MED6 (mediator complex subunit 6),no change,no change,-1.47,2.23,inactive
OSBPL7 (oxysterol binding protein like 7),no change,no change,0.05,-0.64,inactive
UGT2A3 (UDP glucuronosyltransferase family 2 member A3),no change,no change,0.32,-0.9,inactive
TGIF2LY (TGFB induced factor homeobox 2 like Y-linked),no change,no change,-0.19,1.66,inactive
"SPINT4 (serine peptidase inhibitor, Kunitz type 4)",no change,no change,0.15,3.69,inactive

Copied from the entries so far (2 entries):
target,viability hit class,caspase hit class,viability robust z-score,caspase robust z-score,Call
KPRP (keratinocyte proline rich protein),no change,no change,-3.48,-0.59,inactive
COMMD5 (COMM domain containing 5),no change,no change,0.36,-1.18,inactive
